Experimental findings from publication PMC5053539 are described below.

By UniProt entry, the sequences of proteins in these tests, tags left out. Where a name states a change or a piece, a line headed by the entry shows the natural chain unless it says otherwise.
UniProt P45970: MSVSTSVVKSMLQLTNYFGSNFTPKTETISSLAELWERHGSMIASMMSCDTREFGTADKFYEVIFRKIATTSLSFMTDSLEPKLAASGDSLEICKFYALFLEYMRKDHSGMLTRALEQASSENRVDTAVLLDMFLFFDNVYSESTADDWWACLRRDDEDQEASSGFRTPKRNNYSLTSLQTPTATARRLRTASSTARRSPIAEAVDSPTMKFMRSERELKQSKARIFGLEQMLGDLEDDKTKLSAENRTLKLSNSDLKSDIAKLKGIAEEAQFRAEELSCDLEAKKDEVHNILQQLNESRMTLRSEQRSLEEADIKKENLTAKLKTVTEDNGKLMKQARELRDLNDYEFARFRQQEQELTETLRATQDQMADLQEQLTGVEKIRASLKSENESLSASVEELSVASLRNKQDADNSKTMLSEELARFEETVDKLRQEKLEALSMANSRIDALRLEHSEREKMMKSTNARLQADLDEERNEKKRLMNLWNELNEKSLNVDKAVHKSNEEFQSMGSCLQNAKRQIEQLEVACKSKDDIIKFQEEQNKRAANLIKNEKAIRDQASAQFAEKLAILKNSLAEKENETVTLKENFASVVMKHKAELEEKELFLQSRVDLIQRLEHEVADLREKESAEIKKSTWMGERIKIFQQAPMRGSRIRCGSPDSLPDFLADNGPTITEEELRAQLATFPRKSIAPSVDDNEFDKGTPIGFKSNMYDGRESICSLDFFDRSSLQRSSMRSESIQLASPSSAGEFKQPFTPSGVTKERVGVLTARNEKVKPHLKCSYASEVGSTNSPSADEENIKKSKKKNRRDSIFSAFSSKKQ

In the assay the target is T1, DB::GPR-1 (C. elegans) (UniProt Q95QJ7).
T1 sequence: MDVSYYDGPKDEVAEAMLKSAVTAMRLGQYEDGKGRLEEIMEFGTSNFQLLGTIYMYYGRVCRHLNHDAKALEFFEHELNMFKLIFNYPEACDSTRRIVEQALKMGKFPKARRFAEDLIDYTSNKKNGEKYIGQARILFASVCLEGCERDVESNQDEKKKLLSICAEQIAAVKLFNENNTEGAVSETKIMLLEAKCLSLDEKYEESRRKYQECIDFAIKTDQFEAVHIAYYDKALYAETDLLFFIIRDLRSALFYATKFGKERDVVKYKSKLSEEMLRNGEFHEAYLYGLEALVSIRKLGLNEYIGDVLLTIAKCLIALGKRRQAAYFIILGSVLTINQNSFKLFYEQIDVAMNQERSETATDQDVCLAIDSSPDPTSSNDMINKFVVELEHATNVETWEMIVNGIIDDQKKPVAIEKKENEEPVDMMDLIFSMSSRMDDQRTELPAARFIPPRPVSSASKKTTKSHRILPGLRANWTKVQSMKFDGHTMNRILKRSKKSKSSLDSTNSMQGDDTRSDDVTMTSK
The assay is described as follows: two-hybrid; reverse two-hybrid: DB::GPR-1 bait, mutagenised AD::LIN-5 609-821 prey, yeast strain MB004, selection on Sc -leu-trp + 5-FOA; single amino acid changes re-cloned and re-tested on Sc -leu-trp-his + 3-AT and Sc -leu-trp-ura plates.

No constants are given. Whether binding was seen depends on the method and setting.

As for “AD::LIN-5 609–821 with a missense mutation of S659 (from UniProt P45970) (domain or fragment)”, the binding entry is listed as “no binding”.
